These are yes or no findings as the source states them, for the method shown. Binding seen in cells or lysates may run through a third protein. A result given as binding can be weak or reduced; the word gives no strength. Where a sequence is shown, tags or fusion partners need not be part of it.
How the values were obtained:
[1] = molecular target: Flag-tagged mutant NLRP3 lacking the amino-terminal pyrin domain; assay: co-IP; HEK293 cells transiently cotransfected with HA-IKKβ and Flag-tagged proteins; lysate subjected to immunoprecipitation, immunoblot
[2] = molecular target: Flag-tagged LRR domain of NLRP3, singly expressed; assay: as above

binding [1]: binds
binding [2]: binds
B1: IKKβ used for microscale thermophoresis (enzyme, UniProt O14920 1-756, looked up)
chain: MSWSPSLTTQTCGAWEMKERLGTGGFGNVIRWHNQETGEQIAIKQCRQELSPRNRERWCLEIQIMRRLTHPNVVAARDVPEGMQNLAPNDLPLLAMEYCQGGDLRKYLNQFENCCGLREGAILTLLSDIASALRYLHENRIIHRDLKPENIVLQQGEQRLIHKIIDLGYAKELDQGSLCTSFVGTLQYLAPELLEQQKYTVTVDYWSFGTLAFECITGFRPFLPNWQPVQWHSKVRQKSEVDIVVSEDLNGTVKFSSSLPYPNNLNSVLAERLEKWLQLMLMWHPRQRGTDPTYGPNGCFKALDDILNLKLVHILNMVTGTIHTYPVTEDESLQSLKARIQQDTGIPEEDQELLQEAGLALIPDKPATQCISDGKLNEGHTLDMDLVFLFDNSKITYETQISPRPQPESVSCILQEPKRNLAFFQLRKVWGQVWHSIQTLKEDCNRLQQGQRAAMMNLLRNNSCLSKMKNSMASMSQQLKAKLDFFKTSIQIDLEKYSEQTEFGITSDKLLLAWREMEQAVELCGRENEVKLLVERMMALQTDIVDLQRSPMGRKQGGTLDDLEEQARELYRRLREKPRDQRTEGDSQEMVRLLLQAIQSFEKKVRVIYTQLSKTVVCKQKALELLPKVEEVVSLMNEDEKTVVRLQEKRQKELWNLLKIACSKVRGPVSGSPDSMNASRLSQPGQLMSQPSTASNSLPEPAKKSEELVAEAHNLCTLLENAIQDTVREQDQSFTALDWSWLQTEEEEHSCLEQAS
notes: IKKβ titrated in MST
